Assay results reported in PMC3335814, “Structure of an Enzyme-Derived Phosphoprotein Recognition Domain” (PLoS ONE, 2012).
Results are given in words; binding and its absence hold for the method and conditions named. A result given as binding can be weak or reduced; the word gives no strength.

Molecular target: T1, Pins Linker peptide (residues 427-445), pSer436, TMR-labelled (Drosophila) (UniProt Q9VB22)
T1 sequence (peptide, phosphoserine at 436; tetramethylrhodamine (TMR) on the N-terminus): GRMVRVRRQSMEQLDLIKI
Test: fluorescence polarisation; steady state anisotropy of 0.5 µM TMR-labelled Pins peptide (427-445) with increasing concentrations of Dlg constructs; 20 mM Tris pH 8, 100 mM NaCl, 1 mM DTT; nonlinear regression; both purified

With “Dlg GK domain with Y824 mutated (Drosophila) (domain or fragment)” the binding was “binds”.
